This note sets out measurements from paper PMC4684349.

For experiment [1], the target named is T1, VN-Bat1 (S. cerevisiae) (UniProt P38891).
T1 sequence: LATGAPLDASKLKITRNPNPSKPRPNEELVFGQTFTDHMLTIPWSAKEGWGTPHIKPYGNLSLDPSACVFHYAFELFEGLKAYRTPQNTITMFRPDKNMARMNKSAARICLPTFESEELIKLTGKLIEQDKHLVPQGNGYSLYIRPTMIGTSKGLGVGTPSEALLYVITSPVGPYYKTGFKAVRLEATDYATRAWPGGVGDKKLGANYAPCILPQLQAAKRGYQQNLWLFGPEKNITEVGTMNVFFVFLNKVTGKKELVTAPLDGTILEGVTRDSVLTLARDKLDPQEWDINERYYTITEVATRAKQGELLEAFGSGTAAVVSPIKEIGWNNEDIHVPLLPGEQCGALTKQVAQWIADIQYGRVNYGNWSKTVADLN
In words: split reporter; bimolecular fluorescence complementation of Venus halves in diploid yeast cells; SC (+leu), or SC-leu for 2 h (signal reduced); microscopy with MitoTracker Red.

Experiment [2] addresses T2, Bat1^K219R-FLAG (S. cerevisiae) (UniProt P38891).
T2 sequence: T1 sequence with K203R
The experiment in a line: co-IP; FLAG immunoprecipitation from lysates of yeast cells expressing a GFP-tagged protein and BAT1-FLAG, BAT1^K219R-FLAG or empty vector; immunoblot with anti-FLAG and anti-GFP; cells in SC-ura: no treatment, 200 nM rapamycin 30 min, or readdition of leucine or KIC for 1 hr after 2 hr leucine starvation. Background: Immunoblotting shows a protein as a band on a membrane.

The target in experiment [3] is T3, Bat1-FLAG (S. cerevisiae) (UniProt P38891).
T3 sequence: T1 sequence
The description is as above.

Experiment [4] addresses T3, Bat1-FLAG (S. cerevisiae). The experiment in a line: condition: only 2 hr leucine starvation of the cells; co-IP; as a2, but cells harvested after 2 hr leucine starvation (-leu).

Numbering of substitutions follows the chain as printed. These are yes or no findings as the source states them, for the method shown. In cells and extracts the contact can be indirect. Some results given as binding are weak or reduced against the parent protein; the word gives no strength. For some of these results: Where a sequence is shown, tags or fusion partners need not be part of it.

B1: Aco1-VC (enzyme, UniProt P19414 17-778)
chain: ATVSNLTRDSKVNQNLLEDHSFINYKQNVETLDIVRKRLNRPFTYAEKILYGHLDDPHGQDIQRGVSYLKLRPDRVACQDATAQMAILQFMSAGLPQVAKPVTVHCDHLIQAQVGGEKDLKRAIDLNKEVYDFLASATAKYNMGFWKPGSGIIHQIVLENYAFPGALIIGTDSHTPNAGGLGQLAIGVGGADAVDVMAGRPWELKAPKILGVKLTGKMNGWTSPKDIILKLAGITTVKGGTGKIVEYFGDGVDTFSATGMGTICNMGAEIGATTSVFPFNKSMIEYLEATGRGKIADFAKLYHKDLLSADKDAEYDEVVEIDLNTLEPYINGPFTPDLATPVSKMKEVAVANNWPLDVRVGLIGSCTNSSYEDMSRSASIVKDAAAHGLKSKTIFTVTPGSEQIRATIERDGQLETFKEFGGIVLANACGPCIGQWDRRDIKKGDKNTIVSSYNRNFTSRNDGNPQTHAFVASPELVTAFAIAGDLRFNPLTDKLKDKDGNEFMLKPPHGDGLPQRGYDAGENTYQAPPADRSTVEVKVSPTSDRLQLLKPFKPWDGKDAKDMPILIKAVGKTTTDHISMAGPWLKYRGHLENISNNYMIGAINAENKKANCVKNVYTGEYKGVPDTARDYRDQGIKWVVIGDENFGEGSSREHAALEPRFLGGFAIITKSFARIHETNLKKQGLLPLNFKNPADYDKINPDDRIDILGLAELAPGKPVTMRVHPKNGKPWDAVLTHTFNDEQIEWFKYGSALNKIKADEKK
For B1, in experiment [1], the binding result was “binds”.

B2: Aco1-GFP (enzyme, UniProt P19414 17-778)
chain: B1 chain
Regarding B2, the binding result is listed as “binds” in experiment [2], “binds” in experiment [3] and “no binding” in experiment [4].
